# Data taken from patent US20020061862A1, “Inducible nitric oxide synthase for treatment of disease” (University of Pittsburgh of the Commonwealth System of …, priority 1992, published 2002).
# At least one structure is not confirmed: it was looked up by name or label, or the drawing left a doubt.
# Test system: sheep pulmonary artery endothelial cells (SPAEC)
# Format: cell-based
# Conditions: L-NMA 0.5 mM, BH4 100 μM
structure (smiles),measurement,value
"C[C@H](O)[C@H](O)[C@H]1CNc2nc(N)[nH]c(=O)c2N1 [BH4, tetrahydrobiopterin]",effect of agent added to culture medium on nitrogen oxide synthesis / NO2^− production of SPAEC/DFG-iNOS-Neo,did not significantly increase
